In US8846757B2, “Bioactive depside and anthocyanin compounds, compositions, and methods of use” (The Trustees of Columbia University in the City of New York, priority 2006, dated 2014):
Some entries share one result that the patent states for a list of compounds. At least one compound was matched to its structure with a doubt left.

Assays:
[1] = DPPH assay (antiradical activity); conditions: 400 μM DPPH
Description: The DPPH assay was performed on extracts, fractions, and purified compounds as previously described, using 400 μM DPPH (9).
The DPPH assay is an indication of the ability of a substance to scavenge free radicals. Gallic acid is know to be an effective free radical scavenger.

[2] = tested on: IL-8 production in human small airway epithelial (SAE) cells; test: IL-8 immunoassay (ELISA) in SAE cells; format: cell-based; conditions: compound 100 μM, 24 hours, no CSE
Description: Human SAE cells were cultured according to supplier instructions (Clonetics, CA) and maintained in a controlled atmosphere of air-5% CO2 at 37° C. Confluent SAE cells at passages 4-8 were used for experiments.
Cigarette smoke extract (CSE) was prepared using a modified protocol (24). Briefly, a Barnet vacuum pump operating at constant flow was used to draw the smoke of one unfiltered 2R1 reference cigarette (University of Kentucky) through 25 mL of Dulbecco's phosphate-buffered saline. This solution (100% CSE) was adjusted to pH 7.4, filtered, diluted with small airway growth medium to a final concentration of 5%, and added to the cells immediately.
Cells were treated with 5% CSE or pure compounds (100 μM), or pretreated with pure compounds 30 minutes prior to 5% CSE exposure. After 24 hours measurement of human IL-8 in cell culture supemates was performed by ELISA (R&D Systems Inc., MN). Statistical analyses were performed by Student's t-test (two-sided) using the JMP Statistics software package (SAS Institute Inc., NC) and defined at the 5% level.

Row | SMILES | DPPH Assay IC50 [1] | IL-8 inhibition in SAE cells, Untreated [2]
1 | COC(=O)Cc1c(O)cc(O)cc1OC(=O)c1ccc(O)c(O)c1 [Compound 1, methyl 2-[(3,4-dihydroxybenzoyloxy)-4,6-dihydroxyphenyl]acetate] | good antiradical activity | 
2 | O=C(O)Cc1c(O)cc(O)cc1OC(=O)c1ccc(O)c(O)c1 [Compound 2, 2-O-(3,4-dihydroxybenzoyl)-2,4,6-trihydroxyphenylacetic acid] | good antiradical activity | 
3 | OC[C@H]1O[C@@H](Oc2cc3c(O)cc(O)cc3[o+]c2-c2ccc(O)c(O)c2)[C@H](O)[C@@H](O)[C@@H]1O [Compound 3, cyanidin 3-glucoside] | good antiradical activity | 
4 | OC[C@H]1O[C@@H](Oc2cc3c(O)cc(O)cc3[o+]c2-c2cc(O)c(O)c(O)c2)[C@H](O)[C@@H](O)[C@@H]1O [Compound 4, delphinidin 3-glucoside] | good antiradical activity | more effective at blocking IL-8 production in untreated SAE cells than catechin
